Experimental findings from the supplement of paper PMC12819154, “High-throughput peptide-centric local stability assay extends protein–ligand identification to membrane proteins, tissues and bacteria” (Nature Structural & Molecular Biology, 2025) are described below.

Sequences of proteins named here, by UniProt entry; tags and fusion partners are left off. A change or cut given only in a name is not applied to a line headed by its entry.
UniProt O94832: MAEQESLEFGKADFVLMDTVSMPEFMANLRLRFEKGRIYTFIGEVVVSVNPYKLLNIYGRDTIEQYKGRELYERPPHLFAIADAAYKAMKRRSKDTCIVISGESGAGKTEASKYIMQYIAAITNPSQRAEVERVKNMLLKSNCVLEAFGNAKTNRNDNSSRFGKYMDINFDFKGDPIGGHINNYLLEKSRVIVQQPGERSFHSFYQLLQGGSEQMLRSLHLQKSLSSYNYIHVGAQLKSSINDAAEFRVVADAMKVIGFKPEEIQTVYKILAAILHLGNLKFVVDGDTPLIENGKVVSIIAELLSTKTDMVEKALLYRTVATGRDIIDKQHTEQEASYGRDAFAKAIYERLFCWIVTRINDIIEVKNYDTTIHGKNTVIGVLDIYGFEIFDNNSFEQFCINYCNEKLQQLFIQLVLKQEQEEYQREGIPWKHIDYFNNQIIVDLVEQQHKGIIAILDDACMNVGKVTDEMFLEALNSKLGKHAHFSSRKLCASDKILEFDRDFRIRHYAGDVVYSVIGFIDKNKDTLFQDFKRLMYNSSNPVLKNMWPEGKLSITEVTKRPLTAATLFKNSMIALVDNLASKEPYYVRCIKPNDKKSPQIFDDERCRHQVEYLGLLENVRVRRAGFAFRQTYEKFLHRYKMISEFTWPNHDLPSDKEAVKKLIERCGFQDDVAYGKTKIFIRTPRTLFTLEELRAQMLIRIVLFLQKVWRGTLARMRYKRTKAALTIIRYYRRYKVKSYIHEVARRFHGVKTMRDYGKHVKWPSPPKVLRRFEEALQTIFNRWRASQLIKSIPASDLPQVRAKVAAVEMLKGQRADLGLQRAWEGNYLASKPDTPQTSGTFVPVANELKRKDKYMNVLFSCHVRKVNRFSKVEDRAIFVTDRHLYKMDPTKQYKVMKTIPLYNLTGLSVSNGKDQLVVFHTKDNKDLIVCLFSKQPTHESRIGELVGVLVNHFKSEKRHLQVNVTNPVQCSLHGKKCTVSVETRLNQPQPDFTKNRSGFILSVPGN
UniProt O95347, whole entry: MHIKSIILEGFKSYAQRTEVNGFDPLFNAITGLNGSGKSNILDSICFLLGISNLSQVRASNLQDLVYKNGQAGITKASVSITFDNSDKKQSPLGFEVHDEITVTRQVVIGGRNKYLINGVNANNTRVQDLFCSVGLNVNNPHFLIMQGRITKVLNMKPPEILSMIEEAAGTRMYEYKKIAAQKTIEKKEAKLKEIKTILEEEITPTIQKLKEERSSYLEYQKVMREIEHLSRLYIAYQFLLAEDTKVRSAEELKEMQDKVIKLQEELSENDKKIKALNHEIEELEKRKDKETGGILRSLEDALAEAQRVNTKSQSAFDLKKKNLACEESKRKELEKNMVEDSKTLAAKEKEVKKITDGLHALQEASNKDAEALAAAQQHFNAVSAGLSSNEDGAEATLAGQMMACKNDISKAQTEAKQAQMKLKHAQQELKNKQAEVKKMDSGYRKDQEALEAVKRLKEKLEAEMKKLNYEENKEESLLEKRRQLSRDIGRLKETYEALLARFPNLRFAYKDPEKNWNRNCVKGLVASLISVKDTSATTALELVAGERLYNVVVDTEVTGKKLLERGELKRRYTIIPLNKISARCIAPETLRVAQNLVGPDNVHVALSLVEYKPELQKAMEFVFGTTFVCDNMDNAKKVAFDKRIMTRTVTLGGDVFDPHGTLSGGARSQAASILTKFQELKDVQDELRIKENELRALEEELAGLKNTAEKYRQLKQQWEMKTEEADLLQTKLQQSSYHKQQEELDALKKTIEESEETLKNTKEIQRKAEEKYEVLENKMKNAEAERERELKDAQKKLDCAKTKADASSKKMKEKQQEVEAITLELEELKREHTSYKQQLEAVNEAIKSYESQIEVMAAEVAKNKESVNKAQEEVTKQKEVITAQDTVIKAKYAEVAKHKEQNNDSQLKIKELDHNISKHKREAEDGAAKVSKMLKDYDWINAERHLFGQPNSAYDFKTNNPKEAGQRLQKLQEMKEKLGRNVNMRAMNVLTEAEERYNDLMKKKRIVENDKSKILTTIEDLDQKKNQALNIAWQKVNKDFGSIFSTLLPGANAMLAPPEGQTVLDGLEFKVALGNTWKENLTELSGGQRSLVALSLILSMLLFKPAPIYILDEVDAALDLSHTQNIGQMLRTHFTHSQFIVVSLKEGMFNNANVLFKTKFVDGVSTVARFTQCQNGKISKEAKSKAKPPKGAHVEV
UniProt O75674: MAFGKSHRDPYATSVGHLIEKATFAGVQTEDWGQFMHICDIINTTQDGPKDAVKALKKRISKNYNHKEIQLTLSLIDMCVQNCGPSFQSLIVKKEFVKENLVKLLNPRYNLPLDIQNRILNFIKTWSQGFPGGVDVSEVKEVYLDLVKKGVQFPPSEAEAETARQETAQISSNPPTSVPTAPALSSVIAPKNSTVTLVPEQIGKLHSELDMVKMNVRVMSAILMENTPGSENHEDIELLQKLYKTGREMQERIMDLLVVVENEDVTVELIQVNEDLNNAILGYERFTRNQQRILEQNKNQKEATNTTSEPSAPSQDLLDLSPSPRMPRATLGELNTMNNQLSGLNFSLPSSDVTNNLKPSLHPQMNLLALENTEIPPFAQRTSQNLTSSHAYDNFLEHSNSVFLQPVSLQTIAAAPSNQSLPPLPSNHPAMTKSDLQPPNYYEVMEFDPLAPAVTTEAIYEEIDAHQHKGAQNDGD
UniProt O95544: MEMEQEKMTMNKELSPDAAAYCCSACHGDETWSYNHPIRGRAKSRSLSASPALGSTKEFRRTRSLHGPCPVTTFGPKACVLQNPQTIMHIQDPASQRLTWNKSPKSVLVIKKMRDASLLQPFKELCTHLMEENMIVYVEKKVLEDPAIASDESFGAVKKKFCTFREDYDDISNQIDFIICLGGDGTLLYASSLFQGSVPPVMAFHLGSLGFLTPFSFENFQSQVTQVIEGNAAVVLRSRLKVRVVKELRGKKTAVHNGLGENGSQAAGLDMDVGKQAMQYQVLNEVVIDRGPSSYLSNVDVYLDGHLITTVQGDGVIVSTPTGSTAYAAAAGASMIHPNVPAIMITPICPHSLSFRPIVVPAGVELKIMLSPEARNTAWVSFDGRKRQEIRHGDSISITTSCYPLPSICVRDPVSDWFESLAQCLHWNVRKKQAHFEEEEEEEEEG
UniProt O95639, whole entry: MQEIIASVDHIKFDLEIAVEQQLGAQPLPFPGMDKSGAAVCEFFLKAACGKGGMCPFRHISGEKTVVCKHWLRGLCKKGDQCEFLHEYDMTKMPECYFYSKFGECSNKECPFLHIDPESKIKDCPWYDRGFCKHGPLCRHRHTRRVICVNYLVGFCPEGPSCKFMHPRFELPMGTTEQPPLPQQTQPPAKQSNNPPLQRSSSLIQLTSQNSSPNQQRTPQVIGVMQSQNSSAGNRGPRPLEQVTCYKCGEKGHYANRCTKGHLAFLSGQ
UniProt O75935, whole entry: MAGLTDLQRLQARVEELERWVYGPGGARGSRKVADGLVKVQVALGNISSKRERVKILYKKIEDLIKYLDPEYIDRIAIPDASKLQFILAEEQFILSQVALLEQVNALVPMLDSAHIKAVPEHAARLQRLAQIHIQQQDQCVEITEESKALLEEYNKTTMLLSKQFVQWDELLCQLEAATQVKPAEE
UniProt O95644: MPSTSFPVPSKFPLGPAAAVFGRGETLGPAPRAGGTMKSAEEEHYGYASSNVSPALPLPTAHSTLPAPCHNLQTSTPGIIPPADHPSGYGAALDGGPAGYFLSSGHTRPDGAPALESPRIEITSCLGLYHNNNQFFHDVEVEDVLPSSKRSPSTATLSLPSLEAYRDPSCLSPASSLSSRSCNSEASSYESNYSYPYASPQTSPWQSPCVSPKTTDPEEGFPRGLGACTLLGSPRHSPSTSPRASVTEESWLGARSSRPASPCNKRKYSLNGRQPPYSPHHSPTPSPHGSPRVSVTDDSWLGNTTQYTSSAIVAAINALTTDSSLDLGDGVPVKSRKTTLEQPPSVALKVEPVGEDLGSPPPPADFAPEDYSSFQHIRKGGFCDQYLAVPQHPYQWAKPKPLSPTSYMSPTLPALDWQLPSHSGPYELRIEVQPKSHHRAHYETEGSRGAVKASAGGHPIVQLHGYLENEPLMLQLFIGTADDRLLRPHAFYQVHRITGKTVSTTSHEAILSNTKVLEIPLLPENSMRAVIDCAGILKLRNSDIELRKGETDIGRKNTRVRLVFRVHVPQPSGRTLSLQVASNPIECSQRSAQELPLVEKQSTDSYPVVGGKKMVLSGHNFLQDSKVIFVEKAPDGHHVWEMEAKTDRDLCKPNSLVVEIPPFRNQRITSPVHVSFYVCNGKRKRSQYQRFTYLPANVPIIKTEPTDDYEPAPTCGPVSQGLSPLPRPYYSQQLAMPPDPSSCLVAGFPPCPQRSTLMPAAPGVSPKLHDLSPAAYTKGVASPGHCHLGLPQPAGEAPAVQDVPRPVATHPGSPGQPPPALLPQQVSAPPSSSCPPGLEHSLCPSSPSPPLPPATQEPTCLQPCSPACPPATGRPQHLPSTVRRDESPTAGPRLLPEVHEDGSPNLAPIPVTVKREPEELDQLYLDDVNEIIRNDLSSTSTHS
UniProt O95831, whole entry: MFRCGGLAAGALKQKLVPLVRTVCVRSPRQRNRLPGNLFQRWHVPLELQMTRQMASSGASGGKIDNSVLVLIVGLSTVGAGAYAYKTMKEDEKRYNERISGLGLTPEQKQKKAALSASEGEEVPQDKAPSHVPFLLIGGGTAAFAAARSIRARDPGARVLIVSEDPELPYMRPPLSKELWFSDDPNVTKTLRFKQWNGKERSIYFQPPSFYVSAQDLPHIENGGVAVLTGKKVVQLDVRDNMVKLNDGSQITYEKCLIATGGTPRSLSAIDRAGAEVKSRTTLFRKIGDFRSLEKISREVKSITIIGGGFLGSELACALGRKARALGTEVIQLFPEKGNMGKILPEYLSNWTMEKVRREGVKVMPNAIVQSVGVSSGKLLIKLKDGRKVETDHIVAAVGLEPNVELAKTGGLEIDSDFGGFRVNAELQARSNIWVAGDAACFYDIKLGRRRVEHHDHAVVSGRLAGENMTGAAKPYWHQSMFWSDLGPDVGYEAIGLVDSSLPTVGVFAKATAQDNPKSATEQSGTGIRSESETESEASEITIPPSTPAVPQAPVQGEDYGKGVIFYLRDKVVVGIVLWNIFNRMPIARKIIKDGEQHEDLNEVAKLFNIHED
UniProt O94966: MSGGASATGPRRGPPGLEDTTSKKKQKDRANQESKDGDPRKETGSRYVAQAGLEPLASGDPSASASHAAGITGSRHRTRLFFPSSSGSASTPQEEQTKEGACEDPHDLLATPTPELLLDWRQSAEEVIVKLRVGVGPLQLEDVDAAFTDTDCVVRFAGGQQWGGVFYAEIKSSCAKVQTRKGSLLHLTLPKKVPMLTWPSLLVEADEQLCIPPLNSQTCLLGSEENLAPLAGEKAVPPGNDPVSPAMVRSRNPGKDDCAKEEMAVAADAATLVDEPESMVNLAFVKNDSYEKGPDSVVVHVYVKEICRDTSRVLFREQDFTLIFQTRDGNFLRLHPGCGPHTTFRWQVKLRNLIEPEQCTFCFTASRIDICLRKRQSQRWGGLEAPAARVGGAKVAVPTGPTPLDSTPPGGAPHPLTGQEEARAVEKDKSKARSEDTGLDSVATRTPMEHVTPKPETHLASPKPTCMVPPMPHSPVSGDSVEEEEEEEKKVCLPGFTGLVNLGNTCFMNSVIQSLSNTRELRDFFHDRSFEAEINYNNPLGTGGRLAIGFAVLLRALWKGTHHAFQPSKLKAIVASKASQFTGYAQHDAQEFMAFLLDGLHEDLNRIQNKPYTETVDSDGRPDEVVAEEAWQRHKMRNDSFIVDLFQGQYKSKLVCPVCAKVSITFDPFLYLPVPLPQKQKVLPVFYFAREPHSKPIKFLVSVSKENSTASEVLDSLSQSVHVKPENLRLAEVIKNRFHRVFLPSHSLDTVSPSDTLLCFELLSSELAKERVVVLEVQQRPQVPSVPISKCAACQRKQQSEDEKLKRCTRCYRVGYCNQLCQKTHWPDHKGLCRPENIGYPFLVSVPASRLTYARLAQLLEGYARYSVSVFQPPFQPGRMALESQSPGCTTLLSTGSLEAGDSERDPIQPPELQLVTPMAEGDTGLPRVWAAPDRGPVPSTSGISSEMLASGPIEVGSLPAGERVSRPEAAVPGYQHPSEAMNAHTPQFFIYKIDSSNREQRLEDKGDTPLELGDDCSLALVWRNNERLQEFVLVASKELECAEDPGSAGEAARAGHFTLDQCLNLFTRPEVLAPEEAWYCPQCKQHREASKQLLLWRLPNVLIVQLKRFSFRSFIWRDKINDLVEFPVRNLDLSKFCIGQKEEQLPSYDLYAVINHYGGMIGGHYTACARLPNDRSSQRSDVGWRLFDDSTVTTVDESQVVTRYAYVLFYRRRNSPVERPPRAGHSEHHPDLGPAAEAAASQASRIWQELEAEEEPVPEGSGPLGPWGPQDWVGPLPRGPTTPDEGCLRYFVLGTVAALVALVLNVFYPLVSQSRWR

Some of the results follow. Most entries show no effect beyond the scatter of the controls.

Compound in the assay: Cc1nc(Nc2ncc(C(=O)Nc3c(C)cccc3Cl)s2)cc(N2CCN(CCO)CC2)n1 [dasatinib]
Briefly: log2 fold change of tryptic peptide abundance, ligand vs vehicle (limited proteolysis) (log2 ratio); higher = more trypsin-susceptible (destabilized). As to conditions: ligand concentration: 5 uM; sample: K562 cleared lysate.
For the target “MYO1D (peptide sequence: DLIVCLFSKQPTHESR, peptide start residue: 926) (UniProt O94832)”, the log2 fold change is 0.594.

As for “SOGA1 (peptide sequence: KPEPLSPASYHQPEGVAR, peptide start residue: 1315) (UniProt O94964)”, the log2 fold change was -0.719.

Take “SMC2 (peptide sequence: DYDWINAER, peptide start residue: 937) (UniProt O95347)”: the log2 fold change was found to be 0.107.

Take “TOM1L1 (peptide sequence: YNLPLDIQNR, peptide start residue: 109) (UniProt O75674)”: the log2 fold change is -0.141.

On to “NADK (peptide sequence: SLHGPCPVTTFGPK, peptide start residue: 64) (UniProt O95544)”, for which the log2 fold change amounted to 0.075.

In the case of “CPSF4 (peptide sequence: SGAAVCEFFLK, peptide start residue: 36) (UniProt O95639)”, the log2 fold change was -0.218.

In the case of “DCTN3 (peptide sequence: YLDPEYIDR, peptide start residue: 67) (UniProt O75935)”, the log2 fold change was -0.0721.

In the case of “NFATC1 (peptide sequence: GLGACTLLGSPR, peptide start residue: 224) (UniProt O95644)”, the log2 fold change was 0.105.

Regarding “AIFM1 (peptide sequence: LNDGSQITYEK, peptide start residue: 245) (UniProt O95831)”, the log2 fold change is -0.438.

In the case of “USP19 (peptide sequence: CYRVGYCNQLCQK, peptide start residue: 811) (UniProt O94966)”, the log2 fold change was -0.736.
